Laboratory results as given in paper PMC11786360.
These are yes or no findings as the source states them, for the method shown. In cells and extracts the contact can be indirect. A yes stands for co-enrichment or nearness to the bait. Other partners may have been found.

Protein sequences, listed by entry. Tags and fused reporters are not part of them.
UniProt P45974: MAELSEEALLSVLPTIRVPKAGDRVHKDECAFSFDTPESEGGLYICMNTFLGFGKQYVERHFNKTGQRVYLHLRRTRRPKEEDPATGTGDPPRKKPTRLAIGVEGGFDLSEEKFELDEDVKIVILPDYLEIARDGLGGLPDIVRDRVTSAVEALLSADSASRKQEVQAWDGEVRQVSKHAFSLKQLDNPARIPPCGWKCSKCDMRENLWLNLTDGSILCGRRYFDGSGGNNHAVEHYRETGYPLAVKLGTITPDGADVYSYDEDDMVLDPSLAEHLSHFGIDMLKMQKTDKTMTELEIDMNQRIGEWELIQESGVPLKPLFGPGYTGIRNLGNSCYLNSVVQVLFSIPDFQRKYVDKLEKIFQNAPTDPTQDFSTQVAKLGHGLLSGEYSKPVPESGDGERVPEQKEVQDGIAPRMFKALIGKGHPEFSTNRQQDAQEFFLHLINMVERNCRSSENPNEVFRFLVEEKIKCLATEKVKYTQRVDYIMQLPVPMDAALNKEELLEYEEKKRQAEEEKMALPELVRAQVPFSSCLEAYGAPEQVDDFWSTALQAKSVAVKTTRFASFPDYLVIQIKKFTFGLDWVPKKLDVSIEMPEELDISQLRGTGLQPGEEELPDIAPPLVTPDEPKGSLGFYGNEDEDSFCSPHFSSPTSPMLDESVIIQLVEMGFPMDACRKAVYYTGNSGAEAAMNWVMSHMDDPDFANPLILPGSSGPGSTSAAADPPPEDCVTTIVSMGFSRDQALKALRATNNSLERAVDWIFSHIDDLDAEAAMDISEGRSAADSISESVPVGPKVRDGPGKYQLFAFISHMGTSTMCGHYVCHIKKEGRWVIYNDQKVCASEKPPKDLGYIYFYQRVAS

Biological target: T1, low-density lipoprotein receptor-related protein 11 (LRP11), endogenous (human (endogenous in Hep3B)) (UniProt Q86VZ4)
T1 sequence: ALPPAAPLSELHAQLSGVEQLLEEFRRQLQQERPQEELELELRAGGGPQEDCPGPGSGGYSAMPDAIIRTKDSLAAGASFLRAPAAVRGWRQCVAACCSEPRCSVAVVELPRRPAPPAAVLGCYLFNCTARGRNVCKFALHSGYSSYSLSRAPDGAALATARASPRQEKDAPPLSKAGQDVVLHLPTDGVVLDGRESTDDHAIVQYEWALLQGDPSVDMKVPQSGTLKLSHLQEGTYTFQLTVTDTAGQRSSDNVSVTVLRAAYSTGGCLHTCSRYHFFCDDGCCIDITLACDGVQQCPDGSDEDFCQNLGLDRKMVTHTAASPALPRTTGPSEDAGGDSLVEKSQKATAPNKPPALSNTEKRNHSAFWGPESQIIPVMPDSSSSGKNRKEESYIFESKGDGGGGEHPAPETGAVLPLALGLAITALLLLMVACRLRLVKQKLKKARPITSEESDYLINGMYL
Experiment: affinity purification with mass spectrometry; IP from total protein of Hep3B cells with anti-LRP11 antibody (sc-514698) and protein A/G agarose beads; silver staining and mass spectrometry

binding: binds
Substance: Ubiquitin specific peptidase 5 (USP5), endogenous (from UniProt P45974 1-858) (enzyme)
